PMC5974425
These are yes or no findings as the source states them, for the method shown. Binding seen in cells or lysates may run through a third protein. A result given as binding can be weak or reduced; the word gives no strength.

The chains behind the UniProt entries cited, without tags or fusion partners. Where a name states a change or a piece, a line headed by the entry shows the natural chain unless it says otherwise.
UniProt Q12923: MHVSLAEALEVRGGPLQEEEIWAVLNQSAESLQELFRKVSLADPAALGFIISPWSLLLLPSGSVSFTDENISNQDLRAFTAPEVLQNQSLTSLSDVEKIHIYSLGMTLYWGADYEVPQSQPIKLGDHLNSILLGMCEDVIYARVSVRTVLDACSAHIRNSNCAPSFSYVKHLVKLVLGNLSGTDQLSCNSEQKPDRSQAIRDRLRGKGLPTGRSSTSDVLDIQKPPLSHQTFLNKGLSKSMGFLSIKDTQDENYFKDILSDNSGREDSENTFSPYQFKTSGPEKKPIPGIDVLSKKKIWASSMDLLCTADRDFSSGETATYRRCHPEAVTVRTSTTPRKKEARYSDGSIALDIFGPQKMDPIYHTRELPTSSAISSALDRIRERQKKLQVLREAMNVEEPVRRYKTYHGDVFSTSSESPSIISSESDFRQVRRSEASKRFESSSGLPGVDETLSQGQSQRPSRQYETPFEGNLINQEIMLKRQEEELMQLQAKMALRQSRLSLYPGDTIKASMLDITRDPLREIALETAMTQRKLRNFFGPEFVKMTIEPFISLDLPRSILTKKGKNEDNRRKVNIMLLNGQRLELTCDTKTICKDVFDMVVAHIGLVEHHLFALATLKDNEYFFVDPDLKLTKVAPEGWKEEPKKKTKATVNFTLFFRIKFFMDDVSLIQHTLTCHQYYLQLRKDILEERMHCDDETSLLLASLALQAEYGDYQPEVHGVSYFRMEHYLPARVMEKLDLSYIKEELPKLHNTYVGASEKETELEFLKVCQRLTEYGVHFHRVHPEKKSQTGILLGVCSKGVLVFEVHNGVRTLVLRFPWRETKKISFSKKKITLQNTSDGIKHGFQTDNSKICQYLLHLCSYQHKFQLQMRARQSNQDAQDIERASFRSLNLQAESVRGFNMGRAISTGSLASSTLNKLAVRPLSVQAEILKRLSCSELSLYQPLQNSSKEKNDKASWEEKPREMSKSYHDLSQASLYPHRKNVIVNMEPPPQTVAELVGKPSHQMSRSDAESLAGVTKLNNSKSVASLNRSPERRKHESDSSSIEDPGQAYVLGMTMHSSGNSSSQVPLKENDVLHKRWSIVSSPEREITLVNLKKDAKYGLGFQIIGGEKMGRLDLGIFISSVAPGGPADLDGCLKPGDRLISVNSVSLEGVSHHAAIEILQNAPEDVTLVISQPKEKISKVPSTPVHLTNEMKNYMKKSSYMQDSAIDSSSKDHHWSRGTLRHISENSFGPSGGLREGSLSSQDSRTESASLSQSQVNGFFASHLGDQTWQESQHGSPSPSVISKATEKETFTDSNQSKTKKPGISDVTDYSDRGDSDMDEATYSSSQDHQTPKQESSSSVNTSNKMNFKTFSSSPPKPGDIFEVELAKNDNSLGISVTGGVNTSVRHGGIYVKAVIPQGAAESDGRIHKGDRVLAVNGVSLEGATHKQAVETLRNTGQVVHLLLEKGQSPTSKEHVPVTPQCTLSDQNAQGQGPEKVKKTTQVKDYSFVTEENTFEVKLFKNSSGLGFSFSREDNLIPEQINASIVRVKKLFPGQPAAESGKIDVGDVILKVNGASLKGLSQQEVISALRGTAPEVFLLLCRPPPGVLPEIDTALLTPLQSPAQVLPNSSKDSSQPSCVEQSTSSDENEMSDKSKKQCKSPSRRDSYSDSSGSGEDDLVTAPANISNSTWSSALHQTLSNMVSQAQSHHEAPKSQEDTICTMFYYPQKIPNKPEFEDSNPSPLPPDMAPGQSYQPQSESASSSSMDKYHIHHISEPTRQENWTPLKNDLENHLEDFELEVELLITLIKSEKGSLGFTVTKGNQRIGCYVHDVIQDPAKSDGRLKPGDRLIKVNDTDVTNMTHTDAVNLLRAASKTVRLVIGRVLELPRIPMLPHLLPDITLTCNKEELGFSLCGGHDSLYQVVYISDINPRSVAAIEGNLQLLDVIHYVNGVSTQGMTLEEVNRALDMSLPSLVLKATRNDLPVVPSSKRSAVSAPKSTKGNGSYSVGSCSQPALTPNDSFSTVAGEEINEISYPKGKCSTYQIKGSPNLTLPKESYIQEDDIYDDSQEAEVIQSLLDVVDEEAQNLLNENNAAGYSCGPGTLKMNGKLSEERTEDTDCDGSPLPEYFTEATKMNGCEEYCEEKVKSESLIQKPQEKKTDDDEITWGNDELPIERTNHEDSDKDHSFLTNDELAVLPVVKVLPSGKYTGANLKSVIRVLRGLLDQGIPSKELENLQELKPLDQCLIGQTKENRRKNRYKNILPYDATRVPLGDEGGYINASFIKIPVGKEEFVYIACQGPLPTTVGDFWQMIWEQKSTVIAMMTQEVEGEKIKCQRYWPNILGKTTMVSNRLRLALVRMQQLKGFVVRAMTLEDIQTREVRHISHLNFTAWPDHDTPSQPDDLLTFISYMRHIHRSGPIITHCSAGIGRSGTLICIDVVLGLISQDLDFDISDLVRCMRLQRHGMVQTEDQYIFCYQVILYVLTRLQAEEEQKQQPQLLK
UniProt Q16513: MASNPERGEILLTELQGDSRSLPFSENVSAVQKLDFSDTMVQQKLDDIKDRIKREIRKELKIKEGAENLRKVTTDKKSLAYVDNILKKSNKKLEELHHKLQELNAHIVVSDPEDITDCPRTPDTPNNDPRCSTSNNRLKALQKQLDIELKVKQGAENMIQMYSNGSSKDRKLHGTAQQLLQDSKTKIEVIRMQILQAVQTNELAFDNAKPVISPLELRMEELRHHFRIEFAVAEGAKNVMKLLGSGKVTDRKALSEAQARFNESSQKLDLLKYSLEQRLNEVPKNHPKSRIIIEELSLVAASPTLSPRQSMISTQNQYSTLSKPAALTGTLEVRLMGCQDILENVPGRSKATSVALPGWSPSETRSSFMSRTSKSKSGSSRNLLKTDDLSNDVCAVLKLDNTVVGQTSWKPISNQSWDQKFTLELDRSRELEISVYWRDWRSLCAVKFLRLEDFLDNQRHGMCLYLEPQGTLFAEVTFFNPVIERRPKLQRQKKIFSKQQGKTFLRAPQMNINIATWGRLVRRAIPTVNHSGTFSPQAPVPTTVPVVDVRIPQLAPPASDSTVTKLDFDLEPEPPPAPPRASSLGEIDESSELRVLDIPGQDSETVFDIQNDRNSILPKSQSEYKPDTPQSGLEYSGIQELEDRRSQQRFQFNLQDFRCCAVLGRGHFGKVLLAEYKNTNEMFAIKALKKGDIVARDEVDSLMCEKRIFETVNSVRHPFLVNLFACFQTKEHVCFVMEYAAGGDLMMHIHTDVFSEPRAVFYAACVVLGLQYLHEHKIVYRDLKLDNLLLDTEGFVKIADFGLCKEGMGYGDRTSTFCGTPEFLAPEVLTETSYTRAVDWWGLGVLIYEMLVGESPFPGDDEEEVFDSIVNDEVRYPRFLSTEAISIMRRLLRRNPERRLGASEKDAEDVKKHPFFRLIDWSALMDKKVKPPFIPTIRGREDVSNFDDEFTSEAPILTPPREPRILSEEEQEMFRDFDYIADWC

Legend:
[1] = molecular target: GFP-PTPL1(ΔPDZ1-2) (UniProt Q12923); experiment: co-IP; transfected HEK293T cells lysed in 1% Triton X-100, 50 mM Tris-HCl pH 7.5, 150 mM NaCl, 5 mM MgCl2; cleared lysates on agarose beads coupled to GFP binding protein, 1 h at 4°C; the GFP- or YFP-tagged protein is the bait; Western blot
[2] = molecular target: GFP-PTPL1(ΔPDZ2) (UniProt Q12923); experiment: as above

binding [1]: binds
binding [2]: binds
Substance: Flag-PKN2 (from UniProt Q16513 1-984)
